Source: article PMC7552405
These are yes or no findings as the source states them, for the method shown. Binding seen in cells or lysates may run through a third protein. Some binding calls cover weakened binding; strength is not graded here.

Sequences of proteins named here, by UniProt entry; tags and fusion partners are left off.
UniProt Q9BVC4: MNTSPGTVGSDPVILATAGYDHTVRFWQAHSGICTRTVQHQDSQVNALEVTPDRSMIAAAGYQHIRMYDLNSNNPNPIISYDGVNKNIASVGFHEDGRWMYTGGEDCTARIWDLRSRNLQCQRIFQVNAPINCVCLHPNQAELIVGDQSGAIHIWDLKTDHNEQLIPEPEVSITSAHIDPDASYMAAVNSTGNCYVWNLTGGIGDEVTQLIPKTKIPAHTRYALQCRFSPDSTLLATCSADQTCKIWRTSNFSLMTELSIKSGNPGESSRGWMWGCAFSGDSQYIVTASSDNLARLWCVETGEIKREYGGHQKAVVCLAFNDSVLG
UniProt Q8K4Q0: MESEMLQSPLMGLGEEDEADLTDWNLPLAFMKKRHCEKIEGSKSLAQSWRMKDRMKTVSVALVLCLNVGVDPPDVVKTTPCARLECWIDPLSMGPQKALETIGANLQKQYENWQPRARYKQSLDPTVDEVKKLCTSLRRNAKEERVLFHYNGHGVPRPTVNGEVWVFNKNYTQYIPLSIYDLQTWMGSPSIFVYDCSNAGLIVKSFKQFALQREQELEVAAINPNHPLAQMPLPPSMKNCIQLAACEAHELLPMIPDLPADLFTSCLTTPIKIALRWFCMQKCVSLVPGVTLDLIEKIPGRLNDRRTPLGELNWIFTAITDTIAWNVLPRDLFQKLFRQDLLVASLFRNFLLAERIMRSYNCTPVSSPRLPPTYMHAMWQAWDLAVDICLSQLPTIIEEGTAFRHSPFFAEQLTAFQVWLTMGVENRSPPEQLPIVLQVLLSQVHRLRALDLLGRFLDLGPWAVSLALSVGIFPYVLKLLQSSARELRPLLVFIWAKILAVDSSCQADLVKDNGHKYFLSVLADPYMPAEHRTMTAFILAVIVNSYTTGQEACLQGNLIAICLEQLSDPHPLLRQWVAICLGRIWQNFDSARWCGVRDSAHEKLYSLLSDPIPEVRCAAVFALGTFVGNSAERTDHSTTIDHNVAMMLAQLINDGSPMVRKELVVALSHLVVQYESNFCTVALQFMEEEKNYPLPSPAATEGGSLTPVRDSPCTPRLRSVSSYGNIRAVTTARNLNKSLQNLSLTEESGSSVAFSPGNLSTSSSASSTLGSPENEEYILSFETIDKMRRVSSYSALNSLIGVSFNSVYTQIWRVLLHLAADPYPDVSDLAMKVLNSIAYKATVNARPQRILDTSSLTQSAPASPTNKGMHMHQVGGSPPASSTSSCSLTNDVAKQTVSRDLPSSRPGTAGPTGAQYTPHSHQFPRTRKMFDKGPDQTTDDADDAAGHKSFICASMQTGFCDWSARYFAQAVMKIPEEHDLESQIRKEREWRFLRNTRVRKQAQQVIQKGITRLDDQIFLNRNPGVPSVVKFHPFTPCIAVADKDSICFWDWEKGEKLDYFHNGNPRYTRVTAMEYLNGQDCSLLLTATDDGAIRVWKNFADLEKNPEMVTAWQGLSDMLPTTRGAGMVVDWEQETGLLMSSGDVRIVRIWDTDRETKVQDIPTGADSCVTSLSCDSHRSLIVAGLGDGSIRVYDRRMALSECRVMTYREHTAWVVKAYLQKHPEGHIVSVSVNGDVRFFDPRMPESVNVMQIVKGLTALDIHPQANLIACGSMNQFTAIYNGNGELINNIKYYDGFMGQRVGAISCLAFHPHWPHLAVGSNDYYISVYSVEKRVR

Target: EGFP-mLST8 (UniProt Q9BVC4)
Experiment: co-IP; EGFP or EGFP-mLST8 precipitated with GFP-Trap beads from lysates (CHAPS buffer: 40 mM HEPES pH 7.5, 120 mM NaCl, 0.3% CHAPS) of stably transduced Ctsd+/+ and Ctsd-/- PyMT cells; co-precipitated proteins detected by Western blot

- binding: binds
Substance: Raptor (from UniProt Q8K4Q0 1-1335)
